These are yes or no findings as the source states them, for the method shown. Some binding calls cover weakened binding; strength is not graded here.
How the values were obtained:
[1] = target: T1, human DGCR2 expressed on HEK293T cells (human, UniProt P98153 21-550); experiment: flow cytometry, soluble scFv on transfected HEK293T cells, anti-His PE
T1 construct: Transiently expressed on HEK293T cells from a vector with eGFP downstream of a P2A site; also called human antigen; DiGeorge Syndrom Critical Region 2
T1 sequence: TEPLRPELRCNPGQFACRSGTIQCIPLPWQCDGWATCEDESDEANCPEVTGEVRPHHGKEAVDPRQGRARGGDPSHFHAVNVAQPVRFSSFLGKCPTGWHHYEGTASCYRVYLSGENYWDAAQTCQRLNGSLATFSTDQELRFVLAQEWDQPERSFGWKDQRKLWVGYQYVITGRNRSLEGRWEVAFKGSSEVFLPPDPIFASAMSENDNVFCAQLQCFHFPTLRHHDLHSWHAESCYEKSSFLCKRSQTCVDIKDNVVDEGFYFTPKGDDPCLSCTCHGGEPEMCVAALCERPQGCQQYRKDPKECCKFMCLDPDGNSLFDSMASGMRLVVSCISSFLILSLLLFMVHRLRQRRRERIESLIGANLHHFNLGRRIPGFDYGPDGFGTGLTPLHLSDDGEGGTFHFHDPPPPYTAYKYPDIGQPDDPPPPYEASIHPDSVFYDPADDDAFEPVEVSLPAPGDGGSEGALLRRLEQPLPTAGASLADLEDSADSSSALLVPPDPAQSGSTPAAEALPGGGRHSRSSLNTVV

[2] = target: T2, murine DGCR2 expressed on HEK293T cells (mouse, UniProt P98154 25-548); experiment: as above
T2 construct: Transiently expressed on HEK293T cells from a vector with eGFP downstream of a P2A site; also called mouse DGCR2; murine antigen
T2 sequence: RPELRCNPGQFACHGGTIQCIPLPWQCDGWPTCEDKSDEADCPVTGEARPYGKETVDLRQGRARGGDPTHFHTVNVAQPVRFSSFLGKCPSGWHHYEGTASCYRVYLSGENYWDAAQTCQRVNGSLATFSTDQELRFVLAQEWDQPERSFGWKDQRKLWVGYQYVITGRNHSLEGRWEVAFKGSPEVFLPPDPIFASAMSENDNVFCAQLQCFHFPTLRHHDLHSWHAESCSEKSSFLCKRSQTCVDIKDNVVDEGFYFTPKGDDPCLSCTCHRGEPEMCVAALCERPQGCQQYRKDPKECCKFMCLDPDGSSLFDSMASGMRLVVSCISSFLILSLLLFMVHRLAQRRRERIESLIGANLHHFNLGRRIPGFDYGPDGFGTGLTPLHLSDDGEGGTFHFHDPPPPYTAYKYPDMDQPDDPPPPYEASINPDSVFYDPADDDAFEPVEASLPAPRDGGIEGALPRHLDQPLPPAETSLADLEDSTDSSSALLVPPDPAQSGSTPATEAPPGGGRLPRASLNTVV

[3] = target: T2, murine DGCR2 expressed on HEK293T cells; experiment: flow cytometry, soluble scFv on transfected HEK293T cells (figure legend)
[4] = target: T1, human DGCR2 expressed on HEK293T cells; experiment: as above

Measured: binding

B1: UK018-D3 scFv (scFv)
scFv: QVQLVESGGGLVQPGGSLRLSCAASGFTFSSNAMSWVRQAPGKGLEWVSAIGTGGTTYYADSVKGRFTISRDNSKNTLYLQMNSLRAEDTAVYYCAKTGQLDYWGQGTLVTVSSGSASAPKLEEGEFSEARVQSALTQPASVSGSPGQSITISCTGTSSDVGGYNYVSWFQQHPDKAPKLMIYDVSNRPSGVSNRFSGSKSGTSASLAISGLRSEDEADYYCAAWDDSLSGWVFGGGTKLTVLGQPKAAPSVTLFPPSSAAAGSEQKLISEEDLSHHHHHH
binds: [1] | [2] | [3] | [4]

B2: UK018-D4 scFv (scFv)
scFv: QVQLVQSGGGLVQPGGSLRLSCAASGFTFSNYAMSWVRQAPGKGLEWVSGISGGGDNTYYTDSVKGRFTISRDNSKNTLYLQMNSLTAEDTALYYCAKKQSGGSGWSLWGFDYWGQGTLVTVSSGSASALKLEEGEFSEARVQAVVTQEPSLTVSPGGTVTLTCASSTGAVTSGYYPSWFQQKPGQAPRPLIYNTNNKHSWSPARFSGSLLGGKAALTLSGVQPEDEADYYCLLYYGGRGVFGGGTRLTVLSQPKAAPSVTLFPPSSAAAGSEQKLISEEDLSHHHHHH
binds: [1] | [2] | [3] | [4]

— patent EP4420676A1 (Medizinische Hochschule Hannover, dated 2024)
